Reference: the supplement of paper PMC9135407
Values joined by “and” are separate entries in the source; they are usually repeats but may differ in a detail not shown here. Equal entries are not always repeated. Structures can show the parent of a compound that is named as a salt. ± gives the standard deviation of the averaged measurements. The list shows a part of the results. Plates or batches differ in their baseline, so values are only roughly comparable.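 Assay uses culture-activated primary human stellate myofibroblasts; lipid droplet recovery indicates inactivation. Measured: proportion of Hoechst-counted cells over a plate-specific Bodipy cutoff, duplicate wells, DMSO and nortriptyline as per-plate negative and positive controls. A hit scores, control-normalized, above the plate's top-tenth-percentile nortriptyline wells or ranks among its three best wells. Final well concentrations not reported.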

Test system: primary human hepatic stellate cells (donor 1)
Experiment: percent Bodipy-positive cells; higher = more lipid droplet accumulation
Conditions: 48 h
[1] = library stock concentration: 3.33 mM
[2] = library stock concentration: 10 mM
[3] = library stock concentration: 1 mM
[4] = library stock concentration: 13.1 mM

SMILES: COC(=O)N1CCN(Cc2cccc(NC(=O)Nc3ccc(C)nc3)c2F)CC1
- percent Bodipy-positive cells [1]: 11.1 ± 3.5%
- percent Bodipy-positive cells [2]: 24.2 ± 2.2%

SMILES: Clc1ccccc1CN1CCc2sccc2C1 [Ticlopidine HCl]
- percent Bodipy-positive cells (library stock concentration: 7.6 mM): 12.8 ± 0.53%

SMILES: Clc1ccccc1CN1CCc2sccc2C1 [Ticlopidine hydrochloride]
- percent Bodipy-positive cells: 26.4 ± 2.7%
- percent Bodipy-positive cells (library stock concentration: 6.7 mM): 24.7 ± 11%

SMILES: Clc1ccccc1CN1CCc2sccc2C1
- percent Bodipy-positive cells [2]: 13.9 ± 3.8%

SMILES: CCC(=O)O[C@H](CC(=O)O)C[N+](C)(C)C
- percent Bodipy-positive cells [2]: 33.7 ± 8%

SMILES: COc1cc(Br)c(S(=O)(=O)Nc2ccc(Cl)c(O[C@@H]3CCN(C)C3)c2)cc1OC
- percent Bodipy-positive cells [2]: 24.8 ± 7.8%

SMILES: CCc1cccc(N(C)C(=N)Nc2cccc3ccccc23)c1.Cl
- percent Bodipy-positive cells [2]: 96.97 ± 0.75%

SMILES: CCN(CC)CCOC(=O)C1(c2ccc([N+](=O)[O-])cc2)CCCC1 [Nitrocaramiphen hydrochloride]
- percent Bodipy-positive cells: 29 ± 5.5%
- percent Bodipy-positive cells [2]: 30.54 ± 0.21%

SMILES: Nc1ccc(O)c(C(=O)O)c1 [5-Aminosalicylic Acid]
- percent Bodipy-positive cells [3]: 12.7 ± 5.2%

SMILES: Nc1ccc(O)c(C(=O)O)c1 [5-Amino-2-hydroxy-benzoic acid]
- percent Bodipy-positive cells [2]: 5.27 ± 3.2%

SMILES: Nc1ccc(O)c(C(=O)O)c1 [Mesalamine]
- percent Bodipy-positive cells: 7.67 ± 2.6%
- percent Bodipy-positive cells [1]: 7.61 ± 1.3%
- percent Bodipy-positive cells [2]: 14.6 ± 6.7%
- percent Bodipy-positive cells [4]: 10.8 ± 0.21%

SMILES: Nc1ccc(O)c(C(=O)O)c1 [5-aminosalicylic acid]
- percent Bodipy-positive cells [4]: 5.11 ± 1.1%

SMILES: COc1cc2ncnc(Nc3ccc(F)c(Cl)c3)c2cc1NC(=O)C=CCN1CCCCC1
- percent Bodipy-positive cells [1]: 96.997 ± 0.038%

SMILES: CNC(=O)[C@H]1O[C@@H](n2cnc3c(NCc4ccc(N)cc4)ncnc32)[C@H](O)[C@@H]1O
- percent Bodipy-positive cells [2]: 30.5 ± 3.5%

SMILES: CN(C)c1nc(N)c(C(=O)Nc2cccnc2)nc1Cl [ACDPP hydrochloride]
- percent Bodipy-positive cells [2]: 8.22 ± 0.45%

SMILES: N#Cc1ccc(NCCNCC(=O)N2CCC[C@H]2C#N)nc1 [NVP DPP 728 dihydrochloride]
- percent Bodipy-positive cells [2]: 7.02 ± 2.8%

SMILES: COc1cc(N2CCN(C)CC2)ccc1Nc1nccc(-c2cn(C)c3cnccc23)n1
- percent Bodipy-positive cells [1]: 56.2 ± 3.9%
- percent Bodipy-positive cells [2]: 100%

SMILES: COc1cc2c(cc1O)CC[C@@H]1[C@@H]2CC[C@]2(C)[C@@H](O)CC[C@@H]12 [2-Methoxyestradiol (2-MeOE2)]
- percent Bodipy-positive cells [1]: 15.6 ± 6.3%
- percent Bodipy-positive cells [2]: 35 ± 5.5%

SMILES: COc1cc2c(cc1O)CC[C@@H]1[C@@H]2CC[C@]2(C)[C@@H](O)CC[C@@H]12 [2-Methoxyestradiol]
- percent Bodipy-positive cells [2]: 12 ± 5%

SMILES: COc1cc2c(cc1O)CC[C@@H]1[C@@H]2CC[C@]2(C)[C@@H](O)CC[C@@H]12 [2-methoxyestradiol]
- percent Bodipy-positive cells [2]: 56.4 ± 3.9%

SMILES: CC(C)NC[C@H](O)COc1ccc(CCOCC2CC2)cc1 [Levobetaxolol HCl]
- percent Bodipy-positive cells [1]: 13.9 ± 1.1%
- percent Bodipy-positive cells [2]: 68.1 ± 23%

SMILES: CCOC(=O)c1c(Cc2cccc(Cl)c2)[nH]c2c1cc(O)c1ccccc12
- percent Bodipy-positive cells [3]: 10.9 ± 1.1%

SMILES: COC(=O)C1=C(C)NC(C)=C(C(=O)OC)C1c1ccccc1[N+](=O)[O-]
- percent Bodipy-positive cells [2]: 22.4 ± 3.1%

SMILES: COC(=O)C1=C(C)NC(C)=C(C(=O)OC)C1c1ccccc1[N+](=O)[O-] [Nifedipine]
- percent Bodipy-positive cells: 36.5 ± 5.4%
- percent Bodipy-positive cells [1]: 7.52 ± 1%
- percent Bodipy-positive cells (library stock concentration: 5.8 mM): 11.2% and 4.03%

SMILES: Nc1[nH]nc2nc3ccccc3nc12
- percent Bodipy-positive cells [2]: 7.61 ± 2.5%

SMILES: COc1cc2c(CCNC(C)=O)c[nH]c2cc1O [6-Hydroxymelatonin]
- percent Bodipy-positive cells [2]: 50 ± 1.9%

SMILES: O=C1CC[C@@H](C(=O)O)N1
- percent Bodipy-positive cells [2]: 40.8 ± 16%

SMILES: CO[C@@]1(NC(=O)C(C(=O)O)c2ccc(O)cc2)C(=O)N2C(C(=O)O)=C(CSc3nnnn3C)CO[C@@H]21 (stereo partly drawn) [Moxalactam disodium salt]
- percent Bodipy-positive cells: 11.3 ± 3.5%

SMILES: CO[C@@]1(NC(=O)C(C(=O)O)c2ccc(O)cc2)C(=O)N2C(C(=O)O)=C(CSc3nnnn3C)CO[C@@H]21 (stereo partly drawn) [Moxalactam disodium]
- percent Bodipy-positive cells (library stock concentration: 3.5 mM): 2.98 ± 0.82%
- percent Bodipy-positive cells [2]: 9.81 ± 0.72%

SMILES: C=CCc1cc(OC)c(O)c(C(=O)NCCO)c1 [Alibendol]
- percent Bodipy-positive cells [1]: 10.5 ± 0.81%
- percent Bodipy-positive cells [2]: 18.2 ± 1%

SMILES: CN(CCc1ccc(Cl)c(Cl)c1)CC(O)COc1ccc(NS(C)(=O)=O)cc1 (stereo not drawn)
- percent Bodipy-positive cells [2]: 44.9 ± 10%

SMILES: NC(=O)c1ccc2nc(-c3ccc(Oc4ccc(Cl)cc4)cc3)[nH]c2c1 [Chk2 Inhibitor II]
- percent Bodipy-positive cells [1]: 10 ± 1.8%

SMILES: COc1ccc([C@@H]2CNC(=O)C2)cc1OC1CCCC1 [(R)-(-)-Rolipram]
- percent Bodipy-positive cells [2]: 9.35 ± 1.6%

SMILES: COc1ccccc1OCCNCC(O)COc1cccc2[nH]c3ccccc3c12 (stereo not drawn) [Carvedilol]
- percent Bodipy-positive cells [2]: 75.4 ± 0.89%

SMILES: Nc1ccc(S(=O)(=O)Nc2ncccn2)cc1 [Sulfadiazine]
- percent Bodipy-positive cells: 49.6 ± 36%
- percent Bodipy-positive cells [1]: 8.36 ± 4.6%
- percent Bodipy-positive cells (library stock concentration: 8 mM): 4.62% and 14.4%
- percent Bodipy-positive cells [2]: 13.5% and 14.4%

SMILES: CCCC(C)NC(=O)c1ccc(Cl)c(Cl)c1 (stereo not drawn)
- percent Bodipy-positive cells [1]: 30.9 ± 3.9%
- percent Bodipy-positive cells [2]: 35.1 ± 10%

SMILES: O=C(Nc1ccc(Cl)cc1)c1ccccc1NCc1ccncc1 [VEGF Receptor Tyrosine Kinase Inhibitor II]
- percent Bodipy-positive cells [1]: 13.9 ± 7.4%

SMILES: CC(C)[C@H](C(=O)Nc1ccc(C(=O)NO)cc1)c1ccccc1
- percent Bodipy-positive cells [3]: 46.5 ± 3.5%
- percent Bodipy-positive cells [1]: 62.25 ± 0.18%
- percent Bodipy-positive cells [2]: 66.1 ± 1%

SMILES: C#C[C@]1(OC(C)=O)CC[C@H]2[C@@H]3CCC4=C[C@@H](OC(C)=O)CC[C@@H]4[C@H]3CC[C@@]21C [Ethynodiol diacetate]
- percent Bodipy-positive cells: 10 ± 1.7%
- percent Bodipy-positive cells [1]: 11.8 ± 1.3%
- percent Bodipy-positive cells (library stock concentration: 5.2 mM): 11.4 ± 5.4%
- percent Bodipy-positive cells [2]: 42.1 ± 19%

SMILES: N[C@H]1CCN(O)C1=O
- percent Bodipy-positive cells [2]: 7.17 ± 2.1%

SMILES: O=C(O[C@H]1[C@H](Oc2ccccc2COC(=O)C2(O)C=CCCC2=O)O[C@H](CO)[C@@H](O)[C@@H]1O)c1ccccc1 (stereo partly drawn)
- percent Bodipy-positive cells [2]: 16.9 ± 5.4%
